Screen size: about 1,400 compounds; about 60 (4%) were called active. Roughly 7% stayed inconclusive and do not appear here. Calls follow the shape of the dose curve; as a rule, active = well fitted inhibition curve with a large enough effect; inconclusive = small, poorly fitted or top-dose-only effect; inactive = flat fitted curve, though single readings scatter. The list shows a part of the results, in another mix than the full data.
% is scaled to controls: 0 for no effect and ±100 for the full control effect; potency is read from the fitted curve at half-maximal effect.

The chains behind the UniProt entries cited, without tags or fusion partners.
UniProt P08659, whole entry, looked up: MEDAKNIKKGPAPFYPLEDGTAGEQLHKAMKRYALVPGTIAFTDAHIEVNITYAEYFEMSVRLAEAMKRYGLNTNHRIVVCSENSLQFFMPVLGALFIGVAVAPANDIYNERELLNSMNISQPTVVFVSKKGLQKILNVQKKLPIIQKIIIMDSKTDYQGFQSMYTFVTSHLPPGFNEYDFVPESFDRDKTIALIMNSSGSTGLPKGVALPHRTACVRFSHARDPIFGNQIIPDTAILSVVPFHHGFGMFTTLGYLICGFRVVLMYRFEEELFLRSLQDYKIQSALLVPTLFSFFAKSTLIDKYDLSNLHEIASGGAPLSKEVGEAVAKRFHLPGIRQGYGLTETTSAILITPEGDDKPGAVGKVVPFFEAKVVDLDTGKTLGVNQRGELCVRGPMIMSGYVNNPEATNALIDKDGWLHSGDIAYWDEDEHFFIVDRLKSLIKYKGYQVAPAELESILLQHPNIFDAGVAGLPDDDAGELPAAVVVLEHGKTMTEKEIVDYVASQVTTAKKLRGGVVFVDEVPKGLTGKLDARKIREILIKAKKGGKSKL

The target of the test is Luciferin 4-monooxygenase (Photinus pyralis) (UniProt P08659). Put plainly: Nrf2 qHTS screen for inhibitors: Purified Fluc Biochemical Counterscreen for Hit Validation. Also: nearly all actives have a fitted effect of over 65% in size. Particulars: purified firefly luciferase, luminescence inhibition; series mostly up to 57.5 µM; activity change, negative = inhibition: at the top concentration. An excerpt:
Nrf2 is a transcription factor that maintains cellular redox homoestasis and protects cells from xenobiotics. Nrf2 binds to the antioxidant response element (ARE) to induce gene expression of a broad spectrum of genes that encode for antioxidants. […] Finding a small molecule that act as an inhibitor of Nrf2 function would represent a novel therapeutic target that could lead to improvement in survival of patients undergoing chemo- and/or radio- therapy.
A biochemical assay in 1536 well format was developed and utilized to remove compounds that inhibit the luciferase reporter (Fluc) rather than the Nrf2 enzyme. Inhibition of this assay = false positive inhibition of Nrf2.
NIH Chemical Genomics Center [NCGC]
NIH Molecular Libraries Probe Centers Network [MLPCN]
Assay Submitter (PI): Shyam Biswal, Johns Hopkins University
[1] Shibata T., et al., Genetic alteration of Keap1 confers constitutive Nrf2 activation and resistance to chemotherapy in gallbladder cancer. Gastroenterology, 2008.
[2] Sjoblom T., et al., The consensus coding sequences of human breast and colorectal cancers. Science, 2006.
Three microliter of substrate solution containing 50mM Tris acetate, 13.3 mM Mg-acetate, 0.01mM ATP, 0.01% Tween, 0.05% BSA and 0.01mM D-Luciferin (Sigma, #L9504) was dispensed into 1536 well white solid bottom assay plate (Greiner Bio, #789173-F). Twenty-three nanoliter of compounds dissolved in DMSO at different concentrations was added to the plate using a Kalypsys 1536-pin tool. Then 1 uL of firefly luciferase reagent containing 50mM Tris-acetate and 0.04uM P. pyralis luciferase (Sigma, #L9506) was added. The final DMSO concentration was maintained at 0.56%. Luminescence signal was acquired using the PerkinElmer Viewlux plate reader after incubation at room temperature for 10 minutes.
For orientation: qHTS replaces the single test concentration by a dilution series.
For the molecule `CCC(C)(O)C(=O)OC1C(=O)OC2CC3C(C)=CC(=O)C(O)C3(C)C3C4(O)OCC23C1C(C)C4O` (stereo not given), the “activity change, negative = inhibition” value is inactive: -0.132%.

Regarding `c1ccc2c(c1)[I+]c1ccccc1-2`, the “activity change, negative = inhibition” value was inactive: 3.24%.

In the case of `CC(=NNC(=S)N1CC2CCC(CC2)C1)c1nccs1`, the Potency was active: 19 µM.

Take `COc1cccc(NC(=O)CCc2nc(-c3ccc(C(C)(C)C)cc3)no2)c1`: the Potency was active: 2.39 µM.

Regarding `CC1=CC2OC3CC4OC(=O)C=CC=CC(C(C)O)OCC(O)C(C)CC(=O)OCC2(CC1O)C4(C)C31CO1` (stereo not given), the “activity change, negative = inhibition” value is inactive: -12.6%.
